The other results are listed elsewhere or left out.

The chains behind the UniProt entries cited, without tags or fusion partners.
UniProt Q0JBA9, entry or part of it: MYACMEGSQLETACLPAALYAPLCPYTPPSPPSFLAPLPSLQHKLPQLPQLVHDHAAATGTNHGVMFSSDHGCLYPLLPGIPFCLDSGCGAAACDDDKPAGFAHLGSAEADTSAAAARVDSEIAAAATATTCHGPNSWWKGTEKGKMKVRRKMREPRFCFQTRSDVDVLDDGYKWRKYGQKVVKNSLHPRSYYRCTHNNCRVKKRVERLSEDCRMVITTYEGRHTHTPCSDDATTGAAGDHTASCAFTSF

The assay addresses OsWRKY34 (Oryza sativa, UniProt Q0JBA9 1-250). The assay can be described thus: protein-binding microarray (RPBM); PBS, 2% BSA, 51.3 ng/ul salmon testes DNA, 50 uM zinc acetate, 200 nM TF, 25 C, 1 h; high values mean tight binding. As to conditions: protein: recombinant; tags: N-terminal polyhistidine and DsRed monomer fusion (pET32a); label: CyDye5-dUTP incorporated in the synthesized complementary strand; 3' TTTTT single-stranded linker to array surface; dsDNA, one strand shown. Put shortly:
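Binding signal is reported as fluorescence intensity per feature (arbitrary units) from an Axon 4000B scanner. Incubation used 200 nM of each Ni–NTA-purified, N-terminally polyhistidine- and DsRed-fused transcription factor from E. coli BL21-CodonPlus on a double-stranded custom Agilent array for 1 h at 25 °C, with 50 µM zinc acetate in the buffer, followed by washing.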
For “GTCAAACATGTGCTAAAAAGTCAACAGTGTCAAACATTTCCGGAGTCACCTAGTGCAG”, the binding signal is 9540 fluorescence intensity (a.u.).
Turning to “CTACGCGCACACGACCCTACCACTCTATGGTTTTCCTTTTCGGAGTCACCTAGTGCAG”, the binding signal was 11300 fluorescence intensity (a.u.).
With “GATCACGCGGCGCCCACCCACGCTTTTACCCCTTCCTGGTCGGAGTCACCTAGTGCAG”, the binding signal was 8050 fluorescence intensity (a.u.).
Next, “CAACATCTGGTCGTAATAACTACGTTGAATATTACCCTCTCGGAGTCACCTAGTGCAG”: 10200 fluorescence intensity (a.u.).
Next, “GTGATATCCTCTTAGCTCATGCATTTCATTTCATCAGGTTCGGAGTCACCTAGTGCAG”: 8080 fluorescence intensity (a.u.); “TCACTTTTCTTCTTCTCCTCTTCACTTTTCTCTTCACCGTCGGAGTCACCTAGTGCAG”: 8940 fluorescence intensity (a.u.); “ATCACCGCACCACCTCTATTCGCGAATCCACTCCTACCTTCGGAGTCACCTAGTGCAG”: 10900 fluorescence intensity (a.u.).
Next, “CTCATCTCCTTCCTTGCTGCGTTTCGTTTCTTCCCCAAAACGGAGTCACCTAGTGCAG”: 12900 fluorescence intensity (a.u.); “TGTAGGAGTAGACTATATACAGGGCCTTCACTTCAGCCTTCGGAGTCACCTAGTGCAG”: 8480 fluorescence intensity (a.u.).
Regarding “TTTCATTTTTTTCCATTACATCGTTCTAATTTCTTCGAATCGGAGTCACCTAGTGCAG”, the binding signal was 8680 fluorescence intensity (a.u.).
Next, “GCTAAAACCGTCGTCCAAACCGTTATGGGACTTATATTGCCGGAGTCACCTAGTGCAG”: 8520 fluorescence intensity (a.u.); “TCCTCCGAATCCCAATCTCTCGCAGTTCGTTCGAGGAGCTCGGAGTCACCTAGTGCAG”: 8540 fluorescence intensity (a.u.); “GCATCGACGGACCACACCTGCGCTCCACTCCCTAACCTCGCGGAGTCACCTAGTGCAG”: 8120 fluorescence intensity (a.u.).
“AGCCATCGATCTTATTCTTATCCATGCTGCTCTGGAACTACGGAGTCACCTAGTGCAG”: the binding signal is 9350 fluorescence intensity (a.u.).
Next, “TCGTTCCTTTTATTTTCGCAGGCGGGCCGTTGCCCCAACTCGGAGTCACCTAGTGCAG”: 8230 fluorescence intensity (a.u.).
Next, “CGTATTTCTATCTGCTTAACTGGCCCGTTTGAAACTGATTCGGAGTCACCTAGTGCAG”: 8850 fluorescence intensity (a.u.); “GGGATAAGTTTTTCTGGGGATCTACTTGCGAAATAAGTTTCGGAGTCACCTAGTGCAG”: 10400 fluorescence intensity (a.u.); “CCTTATCCACTCCTACCGCTTTCCGCTCTCGTCCCTCCGGCGGAGTCACCTAGTGCAG”: 11700 fluorescence intensity (a.u.).
In the case of “CCGCCCTTCTGCGCGCCGCCAACACCGTTCCTCCGCCGCGCGGAGTCACCTAGTGCAG”, the binding signal is 8230 fluorescence intensity (a.u.).
Take “TGTACTGATATATTCTTCTACTATGCAGTTGACTTGTTGACGGAGTCACCTAGTGCAG”: the binding signal is 8660 fluorescence intensity (a.u.).
As to “CGAGTTTACTTCTCTTGCTATGCACTTCTTTTCATCTTAACGGAGTCACCTAGTGCAG”, the binding signal was 8030 fluorescence intensity (a.u.).
In the case of “CCTCGCATTTCTGTACTACGCCCTAAGTTACATTCTCTACCGGAGTCACCTAGTGCAG”, the binding signal was 11000 fluorescence intensity (a.u.).
Next, “GCCTCTGCCTCTCGCTCTCTCTCTCTAGGCGGCGCAAATGCGGAGTCACCTAGTGCAG”: 9480 fluorescence intensity (a.u.); “ACAAATCACCACCGACACGTTACTATTGATGTATATTATACGGAGTCACCTAGTGCAG”: 9870 fluorescence intensity (a.u.); “CGGTCGCGGGTCGTCCTCCTTCCGTTCCGCGTCCTCTCAACGGAGTCACCTAGTGCAG”: 8250 fluorescence intensity (a.u.).
For the sequence “AACTGTCGACAACTCCGTAGCTAGTCCCTTGTTTAATTTTCGGAGTCACCTAGTGCAG”, the binding signal was 11000 fluorescence intensity (a.u.).
“TTGCTTTCGCCACTTCGGTCCAAGACCTTTGTTGATTTAGCGGAGTCACCTAGTGCAG”: the binding signal is 8590 fluorescence intensity (a.u.).
Regarding “TGCAAAGTAGTAGTTGGGGATTTAATAGTGGCTTACAATACGGAGTCACCTAGTGCAG”, the binding signal was 8620 fluorescence intensity (a.u.).
The result for “TCGCATTGAATGGTATTTTTCCAATTAAAATCTCTTTGCACGGAGTCACCTAGTGCAG” reads 8670 fluorescence intensity (a.u.); that for “GCAAAATTGACGCCCAAACTGCCCATTTTTTCATCGAGAACGGAGTCACCTAGTGCAG”, 8090 fluorescence intensity (a.u.); that for “GAGGAGGTGGTGGCGCGGCGTTCTTGGGGCTGGAGAGGGTCGGAGTCACCTAGTGCAG”, 8790 fluorescence intensity (a.u.).
“GTATTTTTTGATGACCGAGGGATAGATCGTGCTTGACTTGCGGAGTCACCTAGTGCAG”: the binding signal was 9950 fluorescence intensity (a.u.).
Regarding “GTTCTTGCTACTACAATCTGGCAGTCAGAGGCTGTTTTCCCGGAGTCACCTAGTGCAG”, the binding signal is 8440 fluorescence intensity (a.u.).
On to “TCTGTCTATCCTTTGTAAAGTCACTTGCCCTTGCATTACTCGGAGTCACCTAGTGCAG”, for which the binding signal was 16500 fluorescence intensity (a.u.).
Next, “AGAGAGAGGTTGCTGTTTCGATGCGTATTTCTGCAGCTTTCGGAGTCACCTAGTGCAG”: 10100 fluorescence intensity (a.u.).
The result for “CCGTCTGACCAACTGGTCAGATCTGCAGGCCTCCTCTGAGCGGAGTCACCTAGTGCAG” reads 9050 fluorescence intensity (a.u.); that for “CTTCTCTCGCGCTCGATTCGCTTTTGTTTGTTGGGTGCAACGGAGTCACCTAGTGCAG”, 11200 fluorescence intensity (a.u.).
On to “TTCCCTTTTCTTCCTCTTTCTTCTCATCTTGGTTTCTTCCCGGAGTCACCTAGTGCAG”, for which the binding signal was 8730 fluorescence intensity (a.u.).
The result for “CACCCTCACCCTCACGCCCACCCGCACCCGGACGCGCACCCGGAGTCACCTAGTGCAG” reads 9130 fluorescence intensity (a.u.); that for “TAACGCGTTATGTAAACTTTTTGACCAACCAACCGCGATCCGGAGTCACCTAGTGCAG”, 8800 fluorescence intensity (a.u.).
Next, “CCCACCCACCCATGCGGGACCCGATCCCCTCGCCCGCCTCCGGAGTCACCTAGTGCAG”: 9550 fluorescence intensity (a.u.); “TCCGCGACGGCCGCTTCCCGTTCCTGTACTTGCGATCCCTCGGAGTCACCTAGTGCAG”: 9200 fluorescence intensity (a.u.).
Next, “CACCATCTAGACACTTCCATCATGTTATCATACTAGTAACCGGAGTCACCTAGTGCAG”: 9070 fluorescence intensity (a.u.); “CACCTACTCAATGCCTCATCTATCTATTACGAGTTCATTCCGGAGTCACCTAGTGCAG”: 8620 fluorescence intensity (a.u.); “CATGCGTCGTACTAGTGTACTACTACTCTCCTTTCTTTACCGGAGTCACCTAGTGCAG”: 8200 fluorescence intensity (a.u.).
As for “CCTCCATCCTTTGCTCCCAATATCACATTTGCGTTTTGCACGGAGTCACCTAGTGCAG”, the binding signal was 10000 fluorescence intensity (a.u.).
With “CTCTCTCTCTCTCTCTATCGATTGTCATAAAATTTCATAACGGAGTCACCTAGTGCAG”, the binding signal was 8030 fluorescence intensity (a.u.).
For the sequence “ACGAATGCTACGTACAGTCAACTTAATATTTCTTCGCCATCGGAGTCACCTAGTGCAG”, the binding signal was 8160 fluorescence intensity (a.u.).
Turning to “ACTTGATCCCAGCATCCGCATCCGCAGCTGCAGCAGCAGCCGGAGTCACCTAGTGCAG”, the binding signal was 8090 fluorescence intensity (a.u.).
The result for “GGTTTGACTAACTTGAACAATTTTCATCAATCCCAAACTGCGGAGTCACCTAGTGCAG” reads 8210 fluorescence intensity (a.u.); that for “CATCCGGCCATGGTGATGACCGGCGGCGATGATCAGCAGCCGGAGTCACCTAGTGCAG”, 48200 fluorescence intensity (a.u.); that for “ATTTTTTTCCTCTCTAGTTTCACAATGCCGGCAATTATTTCGGAGTCACCTAGTGCAG”, 8480 fluorescence intensity (a.u.).
For “TTATCTCTCCAGAGAGCCATTGCCGCCACTCCATCCTCGCCGGAGTCACCTAGTGCAG”, the binding signal is 8570 fluorescence intensity (a.u.).
Regarding “GGAATGTTCTTTTGGTTCTGAATTCTGATTCATTTTCCTACGGAGTCACCTAGTGCAG”, the binding signal was 9620 fluorescence intensity (a.u.).

The values are drawn from paper PMC7819943, “Rice protein-binding microarrays: a tool to detect cis-acting elements near promoter regions in rice”.
